No constants are given. Whether binding was seen depends on the method and setting. Binding seen in cells or lysates may run through a third protein. Some entries that bind do so weakly or less than the wild type.
Biological target: T1, mitochondrial aldehyde dehydrogenase 2 (ALDH2) (mouse (endogenous in 3T3-L1)) (UniProt P47738)
T1 sequence: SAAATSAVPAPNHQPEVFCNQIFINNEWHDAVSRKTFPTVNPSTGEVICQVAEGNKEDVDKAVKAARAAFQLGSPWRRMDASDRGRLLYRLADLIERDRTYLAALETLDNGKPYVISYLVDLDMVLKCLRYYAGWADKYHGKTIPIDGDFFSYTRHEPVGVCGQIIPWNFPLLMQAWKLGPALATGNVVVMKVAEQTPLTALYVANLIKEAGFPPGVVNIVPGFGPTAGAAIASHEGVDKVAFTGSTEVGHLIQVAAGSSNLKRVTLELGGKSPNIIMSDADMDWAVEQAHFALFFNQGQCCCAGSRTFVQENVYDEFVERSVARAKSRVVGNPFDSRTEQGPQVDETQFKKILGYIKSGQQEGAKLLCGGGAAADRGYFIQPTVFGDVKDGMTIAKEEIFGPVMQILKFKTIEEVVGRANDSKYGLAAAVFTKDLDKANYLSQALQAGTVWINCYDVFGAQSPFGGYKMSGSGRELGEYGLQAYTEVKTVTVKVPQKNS
Assay: co-IP; extracts of 3T3-L1 cells harvested at the indicated times of adipocyte differentiation, NP40 cell lysis buffer; anti-ALDH2 or anti-PKCε (or IgG) coupled to Dynabeads Protein A; immunoblot for PKCε or ALDH2

The chains behind the UniProt entries cited, without tags or fusion partners.
UniProt P16054: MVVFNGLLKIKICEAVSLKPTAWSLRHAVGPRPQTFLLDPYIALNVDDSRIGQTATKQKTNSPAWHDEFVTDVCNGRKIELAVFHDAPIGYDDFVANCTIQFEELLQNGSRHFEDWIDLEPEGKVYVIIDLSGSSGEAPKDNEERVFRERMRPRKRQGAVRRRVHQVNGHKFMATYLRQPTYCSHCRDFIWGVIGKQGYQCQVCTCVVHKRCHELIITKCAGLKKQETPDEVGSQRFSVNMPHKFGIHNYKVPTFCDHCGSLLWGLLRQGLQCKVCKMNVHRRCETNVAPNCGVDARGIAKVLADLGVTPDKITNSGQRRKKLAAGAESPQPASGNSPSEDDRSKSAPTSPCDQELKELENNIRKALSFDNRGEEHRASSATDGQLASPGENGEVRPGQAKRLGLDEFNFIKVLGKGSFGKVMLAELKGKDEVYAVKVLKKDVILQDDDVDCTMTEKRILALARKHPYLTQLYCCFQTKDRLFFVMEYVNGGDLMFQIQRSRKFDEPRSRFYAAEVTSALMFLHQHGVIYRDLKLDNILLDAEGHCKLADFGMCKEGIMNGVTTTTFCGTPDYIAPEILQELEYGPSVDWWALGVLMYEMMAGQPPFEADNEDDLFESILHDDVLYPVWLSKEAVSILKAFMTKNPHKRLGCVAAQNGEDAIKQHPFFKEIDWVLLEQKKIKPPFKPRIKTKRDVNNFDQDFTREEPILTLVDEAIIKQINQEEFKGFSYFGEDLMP

binding: binds
Substance: protein kinase C ε (PKCε) (from UniProt P16054 1-737) (enzyme)

Reference: paper PMC5004862
